In the supplement of paper PMC12823440, “Inhibitors supercharge kinase turnover through native proteolytic circuits” (Nature, 2025):
Where a name gives a salt, the structure may show the parent alone. This is one part of the list. The calls rarely recur for the same compound in another form.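 Kinases were expressed as nanoluciferase fusions in K562 cells and luminescence was read every 4 h between 2 and 18 h as percent of control, DMSO set to 100% and a positive control to 0%. A time point counts as decreased when the signal drops significantly (2 sigma). The hit call is the authors' own, does not follow from the count of time points alone, and its rule is not shown.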

Sequences of proteins named here, by UniProt entry; tags and fusion partners are left off. A change or cut given only in a name is not applied to a line headed by its entry.
UniProt Q15208: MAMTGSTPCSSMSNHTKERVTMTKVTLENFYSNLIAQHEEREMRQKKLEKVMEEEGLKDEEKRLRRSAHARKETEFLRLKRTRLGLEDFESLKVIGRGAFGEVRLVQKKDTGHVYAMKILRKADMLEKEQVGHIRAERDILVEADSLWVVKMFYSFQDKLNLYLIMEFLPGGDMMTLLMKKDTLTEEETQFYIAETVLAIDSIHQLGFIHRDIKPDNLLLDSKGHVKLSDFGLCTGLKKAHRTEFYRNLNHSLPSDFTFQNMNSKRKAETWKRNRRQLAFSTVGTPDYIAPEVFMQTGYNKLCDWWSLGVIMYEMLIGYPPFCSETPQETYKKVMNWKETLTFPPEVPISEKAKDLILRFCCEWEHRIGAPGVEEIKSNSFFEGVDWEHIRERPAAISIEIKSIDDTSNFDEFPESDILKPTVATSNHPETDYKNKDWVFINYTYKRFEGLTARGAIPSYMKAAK

Target: STK38 (UniProt Q15208)
Assay: kinase-Nluc reporter destabilization hit call (1 = scored as downregulated) (binary); higher = compound decreases kinase abundance
Settings: K562; 2-18 h

kinase-Nluc reporter destabilization hit call, inactive:
O=C1/C(=C\c2ccc(Cl)cc2)C=C(c2ccccc2)N1c1ccc(O)cc1 (2.5 µM) 0
C[C@@H]1CCNC(=O)c2cc3ccc(C(=O)Nc4nc5ccccc5n4CCCN(C)C)cc3n21 (10 µM) 0
COc1c(Nc2cc(C)[nH]n2)nc(Sc2ccc(S(=O)(=O)Cc3cccc([N+](=O)[O-])c3F)cc2F)nc1N1CCCCC1 [Centrinone-B] (2.5 µM) 0
COc1ccc(/C=C/C(=O)C2(C(=O)/C=C/c3ccc(OC)c(OC)c3)CCCCC2)cc1OC (2.5 µM) 0
CN(C)c1nc2c(Br)c(Br)c(Br)c(Br)c2[nH]1 (10 µM) 0
O=C(Nc1nc(=O)n(Cc2ccc(Cl)cc2)s1)c1ccc(Cl)cc1 (10 µM) 0
Nc1n[nH]c2nc(-c3ccc(NS(=O)(=O)c4cc(Cl)ccc4F)cc3)cnc12 (10 µM) 0

Target: SYK (UniProt P43405)
Assay: as above
Settings: K562; 2-18 h

kinase-Nluc reporter destabilization hit call, inactive:
CN1CC[C@@H](c2c(O)cc(O)c3c(=O)cc(-c4ccc(C(F)(F)F)cc4Cl)oc23)[C@@H]1CO [Voruciclib (hydrochloride)] (10 µM) 0
O=c1cc(-c2cccc3c2Sc2ccccc2S3)oc(N2CCOCC2)c1 (10 µM) 0
O=[N+]([O-])c1ccc(Nc2nc(N3CCOCC3)nc(N3CCOCC3)n2)cc1 (10 µM) 0
c1ccc(-c2nc(=NCCN3CCOCC3)sn2-c2ccccc2)cc1 [VP3.15 (dihydrobromide)] (10 µM) 0
Nc1nc(N)c2nc(-c3cccc(O)c3)cnc2n1 (10 µM) 0
Nc1ncnc2c1c(-c1ccc(Oc3ccccc3)cc1)nn2C1CCN(CCOCCOCCOc2ccc3c(c2)CN(C2CCC(=O)NC2=O)C3=O)CC1 (stereo not given) (2.5 µM) 0
C=CC(=O)N1C[C@H](COc2nc(Nc3cnn(C)c3)nc3[nH]cc(Cl)c23)[C@@H](OC)C1 (2.5 µM) 0
Cc1nn(C)c2c1C(c1ccc(C(F)(F)F)cc1)C(C#N)=C(N)O2 (stereo not given) (10 µM) 0
O=C(NC1CCOCC1)c1ccc(-c2cc(-c3c[nH]nc3-c3ccccn3)ccn2)cc1 (10 µM) 0
CC/C(=N\NC(=O)c1ccnc(NCCCN2CCOCC2)c1)c1ccc(Cl)cc1O (2.5 µM) 0
COc1cc(N2CCOCC2)ccc1Nc1ncc(Cl)c(Nc2ccccc2NS(C)(=O)=O)n1 (2.5 µM) 0
Cn1cnc([N+](=O)[O-])c1C[N+](C)(C)C/C=C/C(=O)Nc1cc2c(Nc3ccc(Cl)c(Br)c3)ncnc2cn1 [Tarloxotinib (bromide)] (10 µM) 0
O=C(Nc1cccc(C(F)(F)F)c1)c1cccc2cc(Oc3cc(CO)ncn3)ccc12 (10 µM) 0
Oc1ccc(/C=C/c2cc(O)cc(O)c2)cc1 [Resveratrol] (10 µM) 0
O=c1[nH]c(C2CCCN2)nc2c1oc1ccc(Cl)cc12 (stereo not given) [XL413 (hydrochloride)] (10 µM) 0
CN(c1ccc(NC(=O)Nc2ccc(OC(F)(F)F)cc2)cc1)c1ccnc(Nc2cccc(S(N)(=O)=O)c2)n1 (2.5 µM) 0
C=C[C@@](C)(/C=C/c1ccc(O)cc1)CCC=C(C)C [Bakuchiol] (10 µM) 0
COc1cc2ncnc(-n3nc(-c4ccccn4)nc3N)c2cc1OC (10 µM) 0
CNc1nc(Nc2ccc(C(=O)N3CCOCC3)cc2OC)ncc1Cl (2.5 µM) 0
CC(C)S(=O)(=O)c1ccc2nccc(Nc3ccc4scnc4c3)c2c1 (10 µM) 0
CC(C)(O)[C@H]1CC[C@H](Nc2ccc3ncc(-c4cccc(C(F)(F)F)c4)n3n2)CC1 (10 µM) 0
CCN(CC)c1ccc2cc(-c3nc4cc(C)ccc4o3)c(=O)oc2c1 (10 µM) 0
CN(C)S(=O)(=O)c1ccc2c(c1)/C(=C/c1cc3c([nH]1)CCCC3)C(=O)N2 (2.5 µM) 0
C=CC(=O)Nc1cc(Nc2nccc(-n3cc(CN(C)C)c(-c4ccccc4)n3)n2)c(OC)cc1N1CCOCC1 [Lazertinib] (10 µM) 0
Cc1ccc2c(Nc3cccc(Cl)c3F)nccc2c1NC(=O)c1csc2c(N)ncnc12 [Belvarafenib] (10 µM) 0
Oc1cc(O)c2c(c1)OC1(c3ccc(O)c(O)c3)Oc3cc(O)c4c(c3C2C1O)OC(c1ccc(O)c(O)c1)C(O)C4 (stereo not given) [Procyanidin A1] (10 µM) 0
c1ccc(-c2nc3c(c(-n4ccc5cnccc54)n2)CCC3)nc1 (10 µM) 0
Cc1cc(C)nc(NS(=O)(=O)c2ccc(NC(=S)NC(=O)COc3ccc(Br)cc3Cl)cc2)n1 (2.5 µM) 0
Cc1ccc(NC(=O)c2ccc(CN(CCN(C)C)C(=O)c3cccnc3)cc2)cc1Nc1nccc(-c2cccnc2)n1 [PDGFRα kinase inhibitor 1] (10 µM) 0
C[C@H](Nc1ncnc2[nH]cnc12)c1cc2ccc(F)cc2nc1-c1ccccn1 (10 µM) 0
CN(C)CCC=C1c2ccccc2CCc2ccccc21 [Amitriptyline (hydrochloride)] (2.5 µM) 0
O=C1/C(=C\c2ccc(Cl)cc2)C=C(c2ccccc2)N1c1ccc(O)cc1 (2.5 µM) 0
C[C@@H]1CCNC(=O)c2cc3ccc(C(=O)Nc4nc5ccccc5n4CCCN(C)C)cc3n21 (10 µM) 0
COc1c(Nc2cc(C)[nH]n2)nc(Sc2ccc(S(=O)(=O)Cc3cccc([N+](=O)[O-])c3F)cc2F)nc1N1CCCCC1 [Centrinone-B] (2.5 µM) 0
COc1ccc(/C=C/C(=O)C2(C(=O)/C=C/c3ccc(OC)c(OC)c3)CCCCC2)cc1OC (2.5 µM) 0
CN(C)c1nc2c(Br)c(Br)c(Br)c(Br)c2[nH]1 (10 µM) 0
O=C(Nc1nc(=O)n(Cc2ccc(Cl)cc2)s1)c1ccc(Cl)cc1 (10 µM) 0
Nc1n[nH]c2nc(-c3ccc(NS(=O)(=O)c4cc(Cl)ccc4F)cc3)cnc12 (10 µM) 0
